According to PubChem BioAssay AID330 (DTP/NCI, 2004):
The list does not hold the whole screen: it gathers tests that were run many times, whatever their T/C, doses with no T/C, and many T/C values between a quarter and a half above the control. Further doses and runs are listed elsewhere. T/C gives the treated animals as a percentage of the vehicle group. Some doses have a count of surviving animals in place of a T/C: the source files T/C as zero there, which appears to mark a toxic dose or a test without result, not a measured value. Some doses without a T/C left all or most animals alive at the check, yet need not have been tolerated: the source hardly ever lists a survival T/C far under the control, and the zero likely stands for such cases as well. Counts of survivors are from the toxicity check (mostly the fifth day) where no day follows; animals may have died later. Schedule codes are those of the source, read here as Q, the interval in days (D) or hours (H), X, the number of doses. Some entries hold several experiments; the results are listed from low to high. For survival time, the PubChem record calls one and a half times the control and up active, and a quarter to a half above the control has no call in these data; cut-offs in other NCI protocols can differ. Some T/C values are followed by the survivors on the day toxicity was checked, most often the fifth; where none is given, no animal had died by that day.

System: P388 leukemia ip, CD2F1 mice, survival T/C
Assay: NCI In Vivo Anticancer Drug Screen. Data for tumor model P388 Leukemia (intraperitoneal) in CD2F1 (CDF1) mice
Details: T/C endpoint: median survival time, higher T/C = longer survival
[1] = dose: 120.0 mg/kg/injection, schedule: Q01DX005 (ip), vehicle: saline
[2] = dose: 240.0 mg/kg/injection, schedule: Q01DX005 (ip), vehicle: Klucel (hydroxypropylcellulose) (HPC)
[3] = dose: 100.0 mg/kg/injection, schedule: Q04DX003 (ip), vehicle: saline with Tween-80
[4] = dose: 400.0 mg/kg/injection, schedule: Q01DX009 (ip), vehicle: saline with Tween-80
[5] = dose: 6.25 mg/kg/injection, schedule: Q01DX005 (ip), vehicle: saline with Tween-80
[6] = dose: 12.5 mg/kg/injection, schedule: Q01DX005 (ip), vehicle: saline with Tween-80
[7] = dose: 25.0 mg/kg/injection, schedule: Q01DX005 (ip), vehicle: saline with Tween-80
[8] = dose: 50.0 mg/kg/injection, schedule: Q01DX005 (ip), vehicle: saline with Tween-80
[9] = dose: 50.0 mg/kg/injection, schedule: Q01DX009 (ip), vehicle: distilled water + Tween-80
[10] = dose: 240.0 mg/kg/injection, schedule: Q01DX005 (ip), vehicle: saline
[11] = dose: 100.0 mg/kg/injection, schedule: Q01DX005 (ip), vehicle: saline with Tween-80
[12] = dose: 200.0 mg/kg/injection, schedule: Q01DX005 (ip), vehicle: saline with Tween-80
[13] = dose: 100.0 mg/kg/injection, schedule: Q01DX005 (ip), vehicle: Klucel (hydroxypropylcellulose) (HPC)
[14] = dose: 200.0 mg/kg/injection, schedule: Q01DX005 (ip), vehicle: Klucel (hydroxypropylcellulose) (HPC)

For O=C1NC(=O)C(=NC2C(=O)NC(=O)NC2=O)C(=O)N1, which survivor count [1] is on record?
The survivor count was 6 of 6.

How did the survivor count [2] turn out when Cc1nc(N)[nH]c(=O)c1CCCCC#N was run?
The survivor count was 2 of 6.

Which survivor count (dose: 100.0 mg/kg/injection, schedule: Q01DX001 (ip), vehicle: Klucel (hydroxypropylcellulose) (HPC)) does the source give for CCC(c1ccc(OCC(=O)N/N=C2/CCC3C4CCc5cc(O)ccc5C4CCC23C)cc1)C(CC)c1ccc(OCC(=O)N/N=C2\CCC3C4CCc5cc(O)ccc5C4CCC23C)cc1 (centres undefined) here?
The survivor count was 6 of 6.

With CC1=C2CCCCCC2(O)OC1=O (centres undefined) as the molecule, how does the survivor count (dose: 100.0 mg/kg/injection, schedule: Q01DX001 (ip), vehicle: saline) read?
The survivor count was 6 of 6.

And the survivor count (dose: 200.0 mg/kg/injection, schedule: Q01DX001 (ip), vehicle: saline)?
The survivor count was 2 of 6.

And the survivor count (dose: 400.0 mg/kg/injection, schedule: Q01DX001 (ip), vehicle: saline)?
Its survivor count is 0 of 6.

CC1CCCC(CN=Cc2cc([N+](=O)[O-])ccc2O)[N-]1.CC1CCCC(CN=Cc2cc([N+](=O)[O-])ccc2O)[N-]1.[Ni+2] (centres undefined) was tested. Which survivor count [3] did it give?
The survivor count was 6 of 6.

And the survivor count (dose: 200.0 mg/kg/injection, schedule: Q04DX003 (ip), vehicle: saline with Tween-80)?
Its survivor count is 6 of 6.

What about the survivor count (dose: 400.0 mg/kg/injection, schedule: Q04DX003 (ip), vehicle: saline with Tween-80) of the same molecule?
Its survivor count is 6 of 6.

How did the survivor count (dose: 240.0 mg/kg/injection, schedule: Q01DX005 (ip), vehicle: saline with Tween-80) turn out when COc1ccccc1N/N=c1\c2nc3ccccc3nc1n(-c1ccccc1C)c(=S)n2-c1ccccn1 was run?
Its survivor count is 1 of 6.

CCOC(=O)C(C)(C)Oc1ccc(Cl)cc1 was tested. Which T/C [4] did it give?
Its T/C is 128 % of control.

With O=[N+]([O-])c1cccc(N2CN(c3ccccc3)NC(c3ccccc3)=N2)c1 as the molecule, how does the survivor count [3] read?
The survivor count was 5 of 6.

Which survivor count (dose: 100.0 mg/kg/injection, schedule: Q01DX001 (ip), vehicle: saline with Tween-80) does the source give for OCc1c(Cl)nc2n1CCS2 here?
Its survivor count is 0 of 6.

Which survivor count (dose: 200.0 mg/kg/injection, schedule: Q01DX009 (ip), vehicle: suspension in saline) does the source give for Nc1ncnc2c1ncn2C1OCC(O)C1O (centres undefined) here?
The survivor count was 6 of 6.

Which results are given for CC1(C)CCCC2(C)OC(=O)C=C12 (centres undefined)?
survivor count (dose: 12.5 mg/kg/injection, schedule: Q01DX005 (ip), vehicle: distilled water + Tween-80): 3 of 6; survivor count (dose: 25.0 mg/kg/injection, schedule: Q01DX005 (ip), vehicle: distilled water + Tween-80): 0 of 6; survivor count (dose: 50.0 mg/kg/injection, schedule: Q01DX005 (ip), vehicle: distilled water + Tween-80): 0 of 6; survivor count (dose: 100.0 mg/kg/injection, schedule: Q01DX005 (ip), vehicle: distilled water + Tween-80): 0 of 6; survivor count (dose: 200.0 mg/kg/injection, schedule: Q01DX005 (ip), vehicle: distilled water + Tween-80): 0 of 6

O=C1c2cccc(NCCCNCCO)c2C(=O)c2cccc(NCCCNCCO)c21 was tested. Which T/C (dose: 3.12 mg/kg/injection, schedule: Q01DX005 (ip), vehicle: saline with Tween-80) did it give?
The T/C was 133 % of control.

What about the T/C (dose: 6.25 mg/kg/injection, schedule: Q01DX005 (ip), vehicle: acid diluted with saline) of the same molecule?
Its T/C is 128 % of control [5 of 6 alive].

What about the T/C [5] of the same molecule?
The T/C was 140 % of control.

And the T/C (dose: 12.5 mg/kg/injection, schedule: Q01DX005 (ip), vehicle: acid diluted with saline)?
Its T/C is 133 % of control.

What about the T/C [6] of the same molecule?
Its T/C is 133 % of control.

And the T/C (dose: 25.0 mg/kg/injection, schedule: Q01DX005 (ip), vehicle: acid diluted with saline)?
Its T/C is 125 % of control.

What about the T/C [7] of the same molecule?
Its T/C is 125 % of control.

And the survivor count (dose: 50.0 mg/kg/injection, schedule: Q01DX005 (ip), vehicle: acid diluted with saline)?
The survivor count was 3 of 6.

What about the T/C [8] of the same molecule?
Its T/C is 133 % of control.

And the survivor count (dose: 100.0 mg/kg/injection, schedule: Q01DX005 (ip), vehicle: acid diluted with saline)?
Its survivor count is 0 of 6.

What about the survivor count (dose: 100.0 mg/kg/injection, schedule: Q04DX002 (ip), vehicle: distilled water + Tween-80) of the same molecule?
Its survivor count is 2 of 5.

What about the survivor count (dose: 200.0 mg/kg/injection, schedule: Q04DX002 (ip), vehicle: distilled water + Tween-80) of the same molecule?
The survivor count was 0 of 5.

And the survivor count (dose: 400.0 mg/kg/injection, schedule: Q04DX002 (ip), vehicle: distilled water + Tween-80)?
The survivor count was 0 of 5.

What does the source list for FC(F)(F)c1ccc2cc(C3(C4CCNCC4)CCCO3)c3ccc(C(F)(F)F)cc3c2c1 (centres undefined)?
survivor count [9]: 2 of 6; survivor count (dose: 100.0 mg/kg/injection, schedule: Q01DX009 (ip), vehicle: distilled water + Tween-80): 0 of 6; survivor count (dose: 200.0 mg/kg/injection, schedule: Q01DX009 (ip), vehicle: distilled water + Tween-80): 0 of 6

For CS1=C2C(=O)CCCC2=Nc2ccccc21 (centres undefined), which survivor count (dose: 200.0 mg/kg/injection, schedule: Q01DX005 (ip), vehicle: saline) is on record?
The survivor count was 0 of 6.

How did the survivor count [4] turn out when CC1=CSCC(=O)N1 was run?
Its survivor count is 3 of 6.

COC(=O)c1cc(C=C(C)C)[nH]c(=O)c1C#N was tested. Which survivor count [1] did it give?
Its survivor count is 3 of 6.

What about the survivor count [10] of the same molecule?
Its survivor count is 0 of 6.

With CCC(=C(c1ccc(OCCN(C)C)cc1)c1cccc(O)c1)c1ccccc1 (mixture of isomers) as the molecule, how does the survivor count [2] read?
The survivor count was 6 of 6.

With COc1cc(C2=N/C(=C/c3cccs3)C(=O)O2)cc(OC)c1OC as the molecule, how does the survivor count (dose: 50.0 mg/kg/injection, schedule: Q01DX009 (ip), vehicle: Klucel (hydroxypropylcellulose) (HPC)) read?
The survivor count was 6 of 6.

What about the survivor count (dose: 100.0 mg/kg/injection, schedule: Q01DX009 (ip), vehicle: Klucel (hydroxypropylcellulose) (HPC)) of the same molecule?
The survivor count was 5 of 6.

What about the survivor count (dose: 200.0 mg/kg/injection, schedule: Q01DX009 (ip), vehicle: Klucel (hydroxypropylcellulose) (HPC)) of the same molecule?
The survivor count was 6 of 6.

Which results are given for CCC[CH2][Sn]1([CH2]CCC)[O]C(=O)c2c(Cl)c(Cl)c(Cl)c(Cl)c2C(=O)[O]1?
T/C [5]: 127 % of control; survivor count [6]: 1 of 6 and 6 of 6; survivor count [7]: 0 of 6; survivor count [8]: 0 of 6; survivor count [11]: 0 of 6; survivor count [12]: 0 of 6

How did the survivor count (dose: 400.0 mg/kg/injection, schedule: Q04DX003 (ip), vehicle: Klucel (hydroxypropylcellulose) (HPC)) turn out when CSc1nccc(=O)n1-c1ccccc1 was run?
Its survivor count is 2 of 6.

Which survivor count [1] does the source give for CC(C)=CCSC(N)N here?
The survivor count was 0 of 6.

What about the survivor count [10] of the same molecule?
The survivor count was 0 of 6.

How did the T/C (dose: 12.5 mg/kg/injection, schedule: Q01DX005 (ip), vehicle: Klucel (hydroxypropylcellulose) (HPC)) turn out when Nc1ccc(N=N/C(=N\Nc2ccccc2[As](=O)(O)O)C(=O)Nc2ccccc2)c(Cl)c1 was run?
Its T/C is 125 % of control.

What about the survivor count [13] of the same molecule?
Its survivor count is 1 of 6.

And the survivor count [14]?
Its survivor count is 0 of 6.

For CSc1nc2cc(Cl)ccc2c2c1C=NCCN2, which survivor count (dose: 100.0 mg/kg/injection, schedule: Q04DX003 (ip), vehicle: suspension in saline) is on record?
The survivor count was 1 of 6.

What about the survivor count (dose: 200.0 mg/kg/injection, schedule: Q04DX003 (ip), vehicle: suspension in saline) of the same molecule?
Its survivor count is 3 of 6.

Which T/C [8] does the source give for O=C(N/N=C/c1c(O)ccc2ccccc12)C(=O)N/N=C/c1c(O)ccc2ccccc12 here?
The T/C was 144 % of control.

What about the survivor count [11] of the same molecule?
The survivor count was 6 of 6.

And the survivor count [12]?
The survivor count was 4 of 6.

What does the source list for CNC(=O)OCc1c(COC(=O)NC)c(-c2ccc(SC)cc2)n(C)c1C?
T/C (dose: 3.12 mg/kg/injection, schedule: Q01DX009 (ip), vehicle: distilled water + Tween-80): 130 % of control; T/C (dose: 6.25 mg/kg/injection, schedule: Q01DX009 (ip), vehicle: distilled water + Tween-80): 142 and 143 % of control; T/C (dose: 12.5 mg/kg/injection, schedule: Q01DX009 (ip), vehicle: distilled water + Tween-80): 144 % of control; T/C (dose: 25.0 mg/kg/injection, schedule: Q01DX009 (ip), vehicle: distilled water + Tween-80): 144 and 145 % of control; survivor count [9]: 6 of 6

Which results are given for c1ccc([Te][Te]c2ccccc2)cc1?
T/C [7]: 138 % of control; T/C [8]: 130 % of control; T/C [11]: 135 % of control; survivor count [11]: 3 of 5; survivor count [12]: 0 of 5

For COc1cc2c(c(OC)c1OC)-c1cc3c(cc1CC1COC(=O)N1C2)OCO3 (centres undefined), which survivor count [2] is on record?
Its survivor count is 1 of 6.

With CC1(c2ccco2)NC(=O)N(Cl)C1=O (centres undefined) as the molecule, how does the survivor count (dose: 400.0 mg/kg/injection, schedule: Q04DX003 (ip), vehicle: saline) read?
The survivor count was 4 of 6.

Which survivor count [13] does the source give for C/C(=N\Nc1ccc2ccccc2n1)c1ccccn1 here?
Its survivor count is 1 of 6.

And the survivor count [14]?
Its survivor count is 1 of 6.
